Source: publication PMC12116067
These are yes or no findings as the source states them, for the method shown. Binding seen in cells or lysates may run through a third protein.

Chains of the proteins cited; added tags and fusions are not shown.
UniProt P03107: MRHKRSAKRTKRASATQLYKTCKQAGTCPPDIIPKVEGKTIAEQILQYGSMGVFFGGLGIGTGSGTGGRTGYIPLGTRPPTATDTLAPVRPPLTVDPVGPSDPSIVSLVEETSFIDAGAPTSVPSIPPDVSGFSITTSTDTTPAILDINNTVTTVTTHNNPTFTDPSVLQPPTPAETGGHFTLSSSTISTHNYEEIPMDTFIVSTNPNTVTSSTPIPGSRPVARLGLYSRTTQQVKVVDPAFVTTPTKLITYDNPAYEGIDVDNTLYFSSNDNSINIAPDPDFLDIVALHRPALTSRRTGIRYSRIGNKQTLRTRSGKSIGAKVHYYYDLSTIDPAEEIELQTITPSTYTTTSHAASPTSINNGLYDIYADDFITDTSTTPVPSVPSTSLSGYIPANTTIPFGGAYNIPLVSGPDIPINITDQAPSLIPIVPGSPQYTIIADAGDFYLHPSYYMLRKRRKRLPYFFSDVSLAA

Molecular target: HPV16 L2 protein fused with five carboxy terminus HA tags, in HPV16 pseudovirus (HPV16) (UniProt P03107)
Assay: co-IP

B1: Sec24a (protein, UniProt O95486 1-1093)
chain: MSQPGIPASGGAPASLQAQNGAALASGSPYTNGPVQNALLSSQESVSQGYNFQLPGSYPHPIPAKTLNPVSGQSNYGGSQGSGQTLNRPPVASNPVTPSLHSGPAPRMPLPASQNPATTPMPSSSFLPEANLPPPLNWQYNYPSTASQTNHCPRASSQPTVSGNTSLTTNHQYVSSGYPSLQNSFIKSGPSVPPLVNPPLPTTFQPGAPHGPPPAGGPPPVRALTPLTSSYRDVPQPLFNSAVNQEGITSNTNNGSMVVHSSYDEIEGGGLLATPQLTNKNPKMSRSVGYSYPSLPPGYQNTTPPGATGVPPSSLNYPSGPQAFTQTPLGANHLTTSMSGLSLQPEGLRVVNLLQERNMLPSTPLKPPVPNLHEDIQKLNCNPELFRCTLTSIPQTQALLNKAKLPLGLLLHPFKDLVQLPVVTSSTIVRCRSCRTYINPFVSFLDQRRWKCNLCYRVNDVPEEFLYNPLTRVYGEPHRRPEVQNATIEFMAPSEYMLRPPQPPVYLFVFDVSHNAVETGYLNSVCQSLLDNLDLLPGNTRTKIGFITFDSTIHFYGLQESLSQPQMLIVSDIEDVFIPMPENLLVNLNESKELVQDLLKTLPQMFTKTLETQSALGPALQAAFKLMSPTGGRMSVFQTQLPTLGVGALKPREEPNHRSSAKDIHMTPSTDFYKKLALDCSGQQVAVDLFLLSGQYSDLASLGCISRYSAGSVYYYPSYHHQHNPVQVQKLQKELQRYLTRKIGFEAVMRIRCTKGLSIHTFHGNFFVRSTDLLSLPNVNPDAGYAVQMSVEESLTDTQLVSFQSALLYTSSKGERRIRVHTLCLPVVSTLNDVFLGADVQAISGLLANMAVDRSMTASLSDARDALVNAVIDSLSAYRSSVLSNQQPGLMVPFSLRLFPLFVLALLKQKSFQTGTNARLDERIFAMCQVKNQPLVYLMLTTHPSLYRVDNLSDEGALNISDRTIPQPPILQLSVEKLSRDGAFLMDAGSVLMLWVGKNCTQNFLSQVLGVQNYASIPQPMTDLPELDTPESARIIAFISWLREQRPFFPILYVIRDESPMKANFLQNMIEDRTESALSYYEFLLHIQQQVNK
B1 was tested, and the binding was “no binding”.
